# Laboratory results published in PubChem BioAssay AID1487 (National Center for Advancing Translational Sciences (NCATS), 2009).
# “And” between values parts separate entries of the source, which are not always exact repeats. Identical values can stand only once. The list shows a part of the results. The main result of the screen is listed elsewhere. These columns were measured beside it and carry no call. The list favours compounds with an active or inconclusive main result. The note in brackets gives the kind of curve behind each potency; many fits are weak.
# Assay: qHTS Assay for Modulators of Lamin A Splicing
# Details: HeLa LMNA splicing GFP/RFP minigene ratio, 48 h
# In short: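 Read-out is the ratio of GFP to DsRed2 object intensity, acquired by 488 nm laser-scanning cytometry on HeLa lamin A-EGFP minigene reporter cells. Compound incubation 48 hrs at 37 °C in Opti-MEM with 2% FBS; DMSO 0.5% final.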
# [1] = measured here: GFP splicing reporter channel
# [2] = measured here: RFP viability control channel
SMILES,AC50 [1],AC50 [2]
Cc1ccc(S(=O)(=O)N2CCCCC2)cc1NC(=O)CN1CC=C(c2ccccc2)CC1,"3.55 µM [rising, partial curve]","15.8 µM [rising, partial curve]"
CC(=O)c1c(C)n(CCCOC(C)C)c2ccc(O)cc12,"17.8 µM [rising, single point]","35.5 µM [rising, single point]"
Nc1ccncc1,,"0.891 µM [rising, full curve]"
CC/C(=N\Nc1ccccc1)c1c(O)n(C)c(=O)n(C)c1=O,"14.1 µM [rising, single point]","25.1 µM [rising, single point]"
Cc1ccc(N2C(=O)NC(=O)/C(=C\C=C\c3ccco3)C2=O)cc1C,"35.5 µM [falling, single point]","25.1 µM [falling, single point]"
Cc1ccc(OP(=O)(NCc2ccccc2)Oc2ccc(C)cc2)cc1,"35.5 µM [rising, single point]","31.6 µM [rising, single point]"
O=Cc1cn(Cc2ccc(F)cc2Cl)c2ccccc12,,"2.82 µM [rising, full curve]"
CC(=O)O[C@H]1C[C@@H]2CCC3C(CC[C@@]4(C)[C@H]3C[C@H]([N+]3(C)CCCCC3)[C@@H]4OC(C)=O)[C@@]2(C)C[C@@H]1[N+]1(C)CCCCC1 (some centres not stated),,"0.141 µM [rising, full curve, poor fit]"
CCC(=NCCOc1ccc(Cl)cc1)c1c(O)n(C)c(=O)n(C)c1=O,"5.62 µM [rising, full curve]","4.47 µM [rising, full curve]"
COc1cc(C2c3cc4c(cc3C(O)[C@H]3COC(=O)C23)OCO4)cc(OC)c1OC (some centres not stated),"0.0708 µM [falling, full curve]","0.0891 µM [falling, full curve]"
Cc1cc(C)cc(N2C(=O)NC(=O)/C(=C\c3cccn3-c3ccccc3)C2=O)c1,"20 µM [falling, partial curve]","35.5 µM [falling, single point]"
C=CCn1c(O)c(C(CC)=NCCc2ccccc2)c(=O)[nH]c1=O,,"8.91 µM [rising, partial curve, poor fit]"
CC(=O)c1ccc2c(c1)N(CCCN(C)C)c1ccccc1S2,"5.62 µM [falling, partial curve, poor fit]","5.62 µM [falling, single point]"
O=C(O)CCCc1ccc(N(CCCl)CCCl)cc1,"10 µM [falling, partial curve] and 15.8 µM [falling, partial curve]","14.1 µM [falling, single point] and 7.08 µM [rising, partial curve, poor fit] and 25.1 µM [rising, partial curve]"
COc1ccc(Cn2c(N)c(C(=O)NCc3ccco3)c3nc4ccccc4nc32)cc1,"15.8 µM [falling, partial curve]",
Cc1nn(Cc2ccc(Cl)cc2Cl)c(Cl)c1C(=O)NC1CCCc2ccccc21 (configuration not stated),,"0.0794 µM [falling, full curve, poor fit]"
c1ccc2c(c1)OC[C@@H](C1=NCCN1)O2,"6.31 µM [falling, partial curve]","7.94 µM [falling, single point]"
O=c1[nH]c(=S)n(C2CC2)c(O)c1/C=N/N1CCOCC1,"0.158 µM [rising, full curve, poor fit]",
NCC(O)c1cc(O)c(O)cc1F (configuration not stated),"15.8 µM [rising, partial curve]",
CCN(CC)c1ccc(NC(=O)c2cccc(C)c2)cc1S(=O)(=O)Nc1ccccc1OC,,"8.91 µM [rising, partial curve]"
Cc1ccc2c(c1)C1CN(C)CCC1N2C(=O)COc1ccc(N(C)C(=O)C(C)(C)C)cc1 (configuration not stated),,"0.0112 µM [falling, full curve, poor fit]"
COC(=O)[C@]1(C)CC[C@@]2(C)CC[C@@]3(C)C4=CCc5c(cc(O)c(O)c5C)[C@]4(C)CC[C@@]3(C)C2C1 (some centres not stated),"6.31 µM [falling, full curve]","5.62 µM [falling, full curve]"
O=C(CCNS(=O)(=O)c1ccccc1)Nc1ccc(Cl)cc1C(=O)c1ccccc1,,"20 µM [rising, partial curve, poor fit]"
C[C@H](CCC(=O)O)[C@H]1CC[C@@H]2[C@H]3[C@@H](CC[C@@]21C)[C@]1(C)CC[C@H](O)C[C@@H]1C[C@@H]3O,,"11.2 µM [rising, single point]"
C=CCN1CCc2cccc3c2C1Cc1ccc(O)c(O)c1-3 (configuration not stated),"5.62 µM [falling, full curve, poor fit]","15.8 µM [falling, partial curve]"

SMILES,AC50 [1],AC50 [2]
O=[As]O[As]=O (configuration not stated),"7.94 µM [rising, partial curve, poor fit]","7.08 µM [rising, full curve, poor fit]"
Cn1c(O)c(C(=NCCN2CCCCC2)c2ccccc2Cl)c(=O)n(C)c1=O,"14.1 µM [rising, single point]","35.5 µM [rising, single point]"
CC(C)CCNC(=O)Cn1c(=O)oc2cc(S(=O)(=O)N3CCc4ccccc43)ccc21,,"5.01 µM [rising, partial curve, poor fit]"
C[N+]1(C)[C@@H]2CC[C@H]1CC(OC(=O)[C@@H](CO)c1ccccc1)C2 (some centres not stated),"0.00112 µM [falling, full curve, poor fit]",
O=C(COc1ccccc1/C=C1/NC(=O)NC1=O)Nc1ccccc1,"10 µM [rising, partial curve, poor fit]","3.55 µM [rising, full curve]"
O=C(Nc1nc2ccccc2n1CCN1CCCC1)c1ccc(Cl)cc1,"31.6 µM [rising, single point]","20 µM [rising, single point]"
COc1cc(CN2CCCC(C(=O)c3sccc3C)C2)cc(Cl)c1O (configuration not stated),"0.0316 µM [falling, full curve, poor fit]",
O=S(=O)(O)c1ccc(O)cc1,"35.5 µM [falling, single point]","2.24 µM [falling, single point]"
CC(=O)OC(C)(C)/C=C/C(=O)[C@](C)(O)[C@H]1[C@H](O)C[C@@]2(C)[C@@H]3CC=C4[C@H](C[C@H](O)C(=O)C4(C)C)[C@]3(C)C(=O)C[C@]12C,"0.158 µM [falling, full curve]","0.2 µM [falling, full curve]"
COc1ccc(/C=C2/Sc3ccc(C(=O)N4CCc5ccccc5C4)cc3NC2=O)cc1,,"31.6 µM [rising, single point]"
C=CCN1CC[C@]23c4c5ccc(O)c4O[C@H]2/C(=N/NC(=O)c2ccccc2)CC[C@@]3(O)[C@H]1C5,"5.62 µM [falling, partial curve, poor fit]","5.62 µM [falling, single point]"
CC(C)CN1CCN(Cc2ccccc2C(F)(F)F)CC1CCO (configuration not stated),"15.8 µM [falling, single point]",
N#CN,"14.1 µM [rising, partial curve]","0.000891 µM [rising, full curve, poor fit]"
CNC1(c2ccccc2Cl)CCCCC1=O (configuration not stated),"35.5 µM [rising, partial curve, poor fit]","35.5 µM [rising, single point]"
CC(C)CC(N(C)C)C1(c2ccc(Cl)cc2)CCC1 (configuration not stated),"0.02 µM [falling, full curve, poor fit]","0.794 µM [rising, single point]"
Cc1nc2ccccc2n1C1CCN(Cc2nnnn2CCc2ccccc2)CC1,,"7.08 µM [rising, single point]"
Cc1ccc(N=CN(C)C=Nc2ccc(C)cc2C)c(C)c1,"0.00141 µM [rising, full curve, poor fit]","0.000891 µM [rising, full curve, poor fit]"
CC(NC1=NCCS1)c1ccccc1 (configuration not stated),,"25.1 µM [falling, partial curve, poor fit]"
COC(=O)C(O)(c1ccc(NC(=S)NC(=O)c2ccc(Cl)cc2Cl)c(C)c1)C(F)(F)F (configuration not stated),"10 µM [rising, partial curve]","11.2 µM [rising, partial curve]"
CCc1ccc(C(=O)NCc2ccc(Cl)cc2Cl)cc1,"12.6 µM [rising, single point]","25.1 µM [rising, single point]"
COc1ccc(CC2c3cc(OC)c(OC)cc3CCN2C)cc1OC (configuration not stated),,"0.0178 µM [rising, full curve, poor fit]"
CC(C)CCCC(C)C1CCC2C3CC(=O)[C@H]4CC(O)CC[C@]4(C)C3CC[C@@]12C (some centres not stated),"22.4 µM [falling, single point]","22.4 µM [falling, single point]"
O=Cc1cn(Cc2ccc([N+](=O)[O-])cc2)c2ccccc12,"31.6 µM [rising, single point]",
CC(C)n1c(/C=C\[C@@H](O)C[C@@H](O)CC(=O)O)c(-c2ccc(F)cc2)c2ccccc21,"1.26 µM [falling, partial curve, poor fit]","2.24 µM [falling, partial curve]"
